At least one compound was matched to its structure with a doubt left.
Key:
E. coli [1] = assay: Fluorescent histone and fluorescent LL-37 uptake in E. coli; format: cell-based, Escherichia coli; details: 10 μg/mL AF-H2A alone or with 10 μg/mL Cam, 50 μg/mL Kan, 2 μM LL-37, 1 μg/mL PMB or 10 μM MAG2; 1 hour; 1 mM magnesium
Experimental: E. coli strain MG1655 or S. aureus strain RN4220 was cultured to an OD600 of 0.2, and diluted 1:20 into fresh minimal medium containing 1 mM MgSO4. H2A uptake in E. coli was measured by adding 10 μg/mL AF-H2A (1% Alexa Fluor-labeled H2A mixed with 99% unlabeled H2A) and 10 μg/mL Cam, 50 μg/mL Kan, 2 μM LL-37, 1 μg/mL PMB, or 10 μM MAG2, incubating for 1 hour, and analyzing using fluorescence microscopy. H2A uptake in S. aureus was measured using same concentrations of AF-H2A and LL-37. To measure uptake in low ionic conditions, E. coli was grown to OD600 of 0.2 in minimal medium containing 1 mM MgSO4, and diluted 1:20 into fresh minimal medium containing 1 μM or 1 mM MgSO4. H2A uptake in E. coli was measured by adding 10 μg/mL AF-H2A (1% Alexa Fluor-labeled H2A mixed with 99% unlabeled H2A), incubating for up to 3 hours, and analyzing using fluorescence microscopy. LL-37 uptake in both bacteria was measured by adding 1 μM fluorescently-labeled LL-37 (1% 5-FAM-LC-LL-37 (Anaspec) mixed with 99% unlabeled LL-37) or additionally with 10 μg/mL unlabeled H2A, incubating for 1 hour, and imaging using fluorescence microscopy. Time-lapse measurements of LL-37 uptake in E. coli were performed by adding 2 μM fluorescently-labeled LL-37 (3% 5-FAM-LC-LL-37 mixed with 97% unlabeled LL-37) or additional 10 μg/mL unlabeled H2A, immobilizing on agarose pads, and imaging using fluorescence microscopy. […]

E. coli [2] = format: cell-based, Escherichia coli
Experimental: Growth curve experiments were performed using a Synergy HTX multi-mode plate reader and sterile, tissue-culture treated, clear bottom, black polystyrene 96-well microplates (Corning). The temperature setpoint was 37° C. and preheated before beginning measurements. Each well contained 200 μL of total bacterial solution. For experiments performed with stationary phase bacteria, overnight cultures of bacteria were grown overnight to saturation, diluted 1:1000 into minimal medium with 1 μM or 1 mM MgSO4, and supplemented with H2A, LL-37, kanamycin, chloramphenicol, or polymyxin B. For experiments performed with exponential phase bacteria, overnight cultures of bacteria were sub-cultured in fresh minimal medium containing 1 mM MgSO4 and grown to an optical density at 600 nm (OD600) of 0.2. Exponential-phase bacteria were diluted 1:20 into fresh minimal medium with 1 μM or 1 mM MgSO4, and supplemented with H2A, LL-37, magainin-2, kanamycin, chloramphenicol, or polymyxin B. After adding antimicrobial agents, bacterial cultures were immediately added to the 96-well microplates for growth measurements. Growth curves were constructed by taking measurements every 15 minutes for up to 48 hours. Shaking was set to continuous orbital, with a frequency of 282 cpm (3 mm). The read speed was normal, with a 100 msec delay, and 8 measurements per data points.

NC[C@H]1O[C@H](O[C@H]2[C@H](O)[C@@H](O[C@H]3O[C@H](CO)[C@@H](O)[C@H](N)[C@H]3O)[C@H](N)C[C@@H]2N)[C@H](O)[C@@H](O)[C@@H]1O [kanamycin]
AF-H2A uptake (cellular fluorescence) (E. coli [1]): did not induce AF-H2A uptake
E. coli growth (growth rate, lag time) (E. coli [2]): increased the growth lag time
synergy with H2A on E. coli growth (E. coli [2]; kanamycin well above the MIC (50 μg/mL) with 10 μg/mL H2A, 1 mM magnesium): did not synergize with H2A

— patent US20220265766A1, “ANTIMICROBIAL THERAPY THROUGH THE COMBINATION OF PORE-FORMING AGENTS AND HISTONES” (THE REGENTS OF THE UNIVERSITY OF CALIFORNIA, priority 2019, published 2022)
